Changes are numbered by the printed parent chain. The list shows a part of the results, in another mix than the full data. Calls are pooled over several reports, among them a noisy single-well screen. Some of the results follow.
Columns and labels:
Conditions in all cases: stereoisomer not certain
OR2C1 [1] = test system: T1, OR2C1
T1 sequence (whole entry): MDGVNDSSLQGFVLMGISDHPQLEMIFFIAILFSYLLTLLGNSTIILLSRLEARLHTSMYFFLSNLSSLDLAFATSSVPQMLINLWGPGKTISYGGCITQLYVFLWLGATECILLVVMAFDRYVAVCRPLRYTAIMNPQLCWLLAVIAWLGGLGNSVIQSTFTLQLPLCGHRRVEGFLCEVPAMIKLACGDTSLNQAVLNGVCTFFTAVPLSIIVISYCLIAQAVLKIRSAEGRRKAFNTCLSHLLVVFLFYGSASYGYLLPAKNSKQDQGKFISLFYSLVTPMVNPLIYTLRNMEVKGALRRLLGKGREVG
Procedure, shortened: (§1)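 Assay methods differ from source to source, frequently being transient luciferase assays in mammalian cell lines. For each receptor–molecule pair, the label responsive (active) applies when the original authors judged the measured signal statistically different from baseline, and non-responsive (inactive) applies otherwise.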

Chains of the proteins cited; added tags and fusions are not shown. Chains listed by the source or under a name are the forms on record and can include a tag or linker.
OR2J2, as listed by the source: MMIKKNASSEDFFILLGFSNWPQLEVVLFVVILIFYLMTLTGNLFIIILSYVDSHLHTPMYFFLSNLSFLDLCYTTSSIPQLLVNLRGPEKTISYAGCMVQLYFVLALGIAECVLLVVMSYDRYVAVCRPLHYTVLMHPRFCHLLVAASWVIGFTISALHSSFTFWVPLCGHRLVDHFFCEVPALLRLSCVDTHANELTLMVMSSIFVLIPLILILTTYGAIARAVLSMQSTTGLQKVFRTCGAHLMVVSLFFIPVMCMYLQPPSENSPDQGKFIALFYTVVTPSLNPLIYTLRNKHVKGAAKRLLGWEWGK
OR2C1, as listed by the source: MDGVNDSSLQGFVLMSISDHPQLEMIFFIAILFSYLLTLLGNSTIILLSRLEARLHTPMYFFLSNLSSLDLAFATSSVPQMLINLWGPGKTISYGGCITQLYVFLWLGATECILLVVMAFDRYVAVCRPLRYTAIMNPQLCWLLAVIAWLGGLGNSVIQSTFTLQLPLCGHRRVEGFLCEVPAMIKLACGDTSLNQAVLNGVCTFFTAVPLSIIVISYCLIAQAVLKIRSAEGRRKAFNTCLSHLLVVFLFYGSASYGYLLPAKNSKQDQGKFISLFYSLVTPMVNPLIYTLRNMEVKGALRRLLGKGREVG

OR2C1 [2] = test system: T2, OR2C1; remark: listed apart in the source
T2 sequence (whole entry): T1 sequence (whole entry) with G16S, S58P, R229H
Procedure, shortened: as §1

OR2C1 [3] = test system: T3, OR2C1; remark: listed apart in the source
T3 sequence (whole entry): T1 sequence (whole entry) with G16S, S58P
Procedure, shortened: as §1

OR2C3 = test system: T4, OR2C3
T4 sequence (whole entry): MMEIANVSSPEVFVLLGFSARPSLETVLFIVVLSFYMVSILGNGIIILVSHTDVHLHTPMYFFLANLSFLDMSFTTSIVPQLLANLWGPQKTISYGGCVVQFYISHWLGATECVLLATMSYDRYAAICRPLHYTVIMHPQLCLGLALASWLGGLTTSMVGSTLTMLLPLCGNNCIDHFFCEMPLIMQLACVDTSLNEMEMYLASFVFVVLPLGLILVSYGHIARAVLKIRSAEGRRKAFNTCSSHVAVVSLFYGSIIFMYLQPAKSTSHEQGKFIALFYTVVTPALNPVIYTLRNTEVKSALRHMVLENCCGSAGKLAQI
Procedure, shortened: as §1

OR2D2 (Homo sapiens) = molecular target: T5, OR2D2 (Homo sapiens) (UniProt Q9H210)
T5 sequence (whole entry): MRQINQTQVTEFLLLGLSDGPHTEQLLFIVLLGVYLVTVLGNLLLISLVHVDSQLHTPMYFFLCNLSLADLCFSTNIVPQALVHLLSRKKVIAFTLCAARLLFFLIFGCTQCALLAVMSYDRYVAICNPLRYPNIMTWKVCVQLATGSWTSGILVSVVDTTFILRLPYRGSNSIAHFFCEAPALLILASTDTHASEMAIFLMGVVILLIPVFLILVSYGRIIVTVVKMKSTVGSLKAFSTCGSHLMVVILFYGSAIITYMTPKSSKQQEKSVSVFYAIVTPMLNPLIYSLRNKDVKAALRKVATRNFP
Procedure, shortened: as §1

OR2D3 = test system: T6, OR2D3
T6 sequence (whole entry): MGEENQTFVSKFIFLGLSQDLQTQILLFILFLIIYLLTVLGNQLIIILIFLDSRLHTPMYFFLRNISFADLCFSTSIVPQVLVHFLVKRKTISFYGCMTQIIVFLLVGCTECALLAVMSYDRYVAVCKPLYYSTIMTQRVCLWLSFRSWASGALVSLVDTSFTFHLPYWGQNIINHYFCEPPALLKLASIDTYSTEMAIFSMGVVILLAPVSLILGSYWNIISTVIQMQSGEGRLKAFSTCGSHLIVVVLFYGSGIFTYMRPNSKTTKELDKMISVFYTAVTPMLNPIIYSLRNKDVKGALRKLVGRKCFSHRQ
Procedure, shortened: as §1

OR2F1 (Homo sapiens) = molecular target: T7, OR2F1 (Homo sapiens) (UniProt Q13607)
T7 sequence (whole entry): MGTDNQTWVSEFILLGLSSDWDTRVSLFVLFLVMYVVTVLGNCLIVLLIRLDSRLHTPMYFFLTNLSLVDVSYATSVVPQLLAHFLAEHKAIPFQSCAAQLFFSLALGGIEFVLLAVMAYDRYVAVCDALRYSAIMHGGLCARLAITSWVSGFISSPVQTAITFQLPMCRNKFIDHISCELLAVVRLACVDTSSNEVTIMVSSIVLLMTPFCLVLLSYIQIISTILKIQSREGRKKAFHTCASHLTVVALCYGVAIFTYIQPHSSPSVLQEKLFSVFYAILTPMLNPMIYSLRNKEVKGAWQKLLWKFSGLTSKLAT
Procedure, shortened: as §1

OR2F2 = test system: T8, OR2F2
T8 sequence (whole entry): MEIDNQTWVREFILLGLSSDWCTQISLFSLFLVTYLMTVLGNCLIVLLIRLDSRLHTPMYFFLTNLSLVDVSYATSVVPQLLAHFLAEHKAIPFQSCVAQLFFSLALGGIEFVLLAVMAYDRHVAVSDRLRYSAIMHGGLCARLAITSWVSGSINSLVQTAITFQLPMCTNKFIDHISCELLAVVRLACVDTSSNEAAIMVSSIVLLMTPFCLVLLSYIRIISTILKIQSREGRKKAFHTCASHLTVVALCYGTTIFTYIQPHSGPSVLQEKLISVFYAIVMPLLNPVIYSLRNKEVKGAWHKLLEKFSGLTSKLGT
Procedure, shortened: as §1

OR2G2 [4] = test system: T9, OR2G2
T9 sequence (whole entry): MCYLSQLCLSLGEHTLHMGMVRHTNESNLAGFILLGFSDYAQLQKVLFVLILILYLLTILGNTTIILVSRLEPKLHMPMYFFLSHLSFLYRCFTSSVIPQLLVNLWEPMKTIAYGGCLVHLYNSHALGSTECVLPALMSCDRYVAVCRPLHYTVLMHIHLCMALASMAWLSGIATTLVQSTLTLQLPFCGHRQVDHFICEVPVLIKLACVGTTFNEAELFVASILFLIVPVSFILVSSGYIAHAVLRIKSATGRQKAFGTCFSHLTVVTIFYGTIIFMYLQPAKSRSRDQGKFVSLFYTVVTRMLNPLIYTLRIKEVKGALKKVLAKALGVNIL
Procedure, shortened: as §1

OR2G2 [5] = test system: T10, OR2G2; remark: listed apart in the source
T10 sequence (whole entry): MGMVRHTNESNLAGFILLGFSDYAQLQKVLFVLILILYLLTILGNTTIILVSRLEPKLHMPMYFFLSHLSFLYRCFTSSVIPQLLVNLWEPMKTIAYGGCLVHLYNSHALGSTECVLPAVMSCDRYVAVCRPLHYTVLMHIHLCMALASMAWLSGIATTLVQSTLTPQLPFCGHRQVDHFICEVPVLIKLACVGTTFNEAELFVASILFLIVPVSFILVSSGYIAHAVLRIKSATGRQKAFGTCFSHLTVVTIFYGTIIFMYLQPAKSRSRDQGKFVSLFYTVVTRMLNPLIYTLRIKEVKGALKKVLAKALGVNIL
Procedure, shortened: as §1

OR2G3 (Homo sapiens) = molecular target: T11, OR2G3 (Homo sapiens) (UniProt Q8NGZ4)
T11 sequence (whole entry): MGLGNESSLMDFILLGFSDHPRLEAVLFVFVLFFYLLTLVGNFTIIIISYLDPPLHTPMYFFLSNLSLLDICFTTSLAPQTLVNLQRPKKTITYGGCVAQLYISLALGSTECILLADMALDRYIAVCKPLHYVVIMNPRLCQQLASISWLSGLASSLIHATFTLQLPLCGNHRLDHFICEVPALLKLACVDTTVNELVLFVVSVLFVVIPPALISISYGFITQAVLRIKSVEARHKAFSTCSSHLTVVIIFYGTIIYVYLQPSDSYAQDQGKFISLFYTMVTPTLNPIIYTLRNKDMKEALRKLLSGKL
Procedure, shortened: as §1

OR2G3 = test system: T12, OR2G3
T12 sequence (whole entry): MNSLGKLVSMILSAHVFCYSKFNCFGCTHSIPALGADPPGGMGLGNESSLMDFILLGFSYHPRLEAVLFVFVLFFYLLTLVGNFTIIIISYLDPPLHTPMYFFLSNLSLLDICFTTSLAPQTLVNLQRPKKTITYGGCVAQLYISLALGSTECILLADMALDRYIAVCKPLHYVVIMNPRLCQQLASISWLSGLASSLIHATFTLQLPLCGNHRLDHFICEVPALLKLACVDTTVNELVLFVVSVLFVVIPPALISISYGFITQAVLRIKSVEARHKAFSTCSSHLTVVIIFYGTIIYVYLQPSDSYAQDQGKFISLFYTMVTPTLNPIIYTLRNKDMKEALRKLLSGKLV
Procedure, shortened: as §1

OR2G6 (Homo sapiens) = molecular target: T13, OR2G6 (Homo sapiens) (UniProt Q5TZ20)
T13 sequence (whole entry): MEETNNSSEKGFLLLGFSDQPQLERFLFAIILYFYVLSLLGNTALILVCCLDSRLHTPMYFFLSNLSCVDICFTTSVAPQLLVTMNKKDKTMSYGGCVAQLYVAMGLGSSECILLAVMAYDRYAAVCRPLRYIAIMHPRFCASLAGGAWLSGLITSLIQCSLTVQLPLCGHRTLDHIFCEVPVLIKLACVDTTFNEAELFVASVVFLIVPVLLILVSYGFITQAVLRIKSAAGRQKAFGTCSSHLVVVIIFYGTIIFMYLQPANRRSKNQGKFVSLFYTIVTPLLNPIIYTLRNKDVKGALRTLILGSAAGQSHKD
Procedure, shortened: as §1

OR2H1 (Homo sapiens) = molecular target: T14, OR2H1 (Homo sapiens) (UniProt Q9GZK4)
T14 sequence (whole entry): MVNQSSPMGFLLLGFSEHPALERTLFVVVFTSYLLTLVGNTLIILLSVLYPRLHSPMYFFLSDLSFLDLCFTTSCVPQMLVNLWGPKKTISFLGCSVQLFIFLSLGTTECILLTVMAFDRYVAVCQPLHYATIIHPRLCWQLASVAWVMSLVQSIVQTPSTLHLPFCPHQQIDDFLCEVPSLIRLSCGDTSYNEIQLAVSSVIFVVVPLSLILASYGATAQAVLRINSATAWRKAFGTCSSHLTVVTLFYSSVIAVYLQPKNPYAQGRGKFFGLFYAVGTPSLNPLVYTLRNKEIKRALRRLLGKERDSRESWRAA
Procedure, shortened: as §1

OR2H2 [6] = test system: T15, OR2H2
T15 sequence (whole entry): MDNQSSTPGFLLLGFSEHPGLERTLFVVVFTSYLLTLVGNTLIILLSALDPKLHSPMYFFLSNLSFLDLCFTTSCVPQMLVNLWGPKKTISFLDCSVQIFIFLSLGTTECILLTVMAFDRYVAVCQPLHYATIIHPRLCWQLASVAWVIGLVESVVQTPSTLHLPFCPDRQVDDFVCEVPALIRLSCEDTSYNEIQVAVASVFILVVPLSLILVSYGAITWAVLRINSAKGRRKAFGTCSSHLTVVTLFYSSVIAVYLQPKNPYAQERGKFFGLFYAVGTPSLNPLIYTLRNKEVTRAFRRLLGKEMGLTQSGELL
Procedure, shortened: as §1

OR2H2 [7] = test system: T16, OR2H2; remark: listed apart in the source
T16 sequence (whole entry): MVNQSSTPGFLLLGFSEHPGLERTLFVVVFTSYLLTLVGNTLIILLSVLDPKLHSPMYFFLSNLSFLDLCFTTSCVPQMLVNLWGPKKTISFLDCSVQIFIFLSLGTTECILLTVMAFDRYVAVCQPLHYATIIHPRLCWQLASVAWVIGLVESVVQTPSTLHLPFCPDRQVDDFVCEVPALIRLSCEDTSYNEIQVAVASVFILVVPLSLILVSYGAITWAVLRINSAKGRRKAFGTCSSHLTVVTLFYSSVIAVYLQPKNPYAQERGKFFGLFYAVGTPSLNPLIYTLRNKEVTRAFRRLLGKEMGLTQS
Procedure, shortened: as §1

OR2J1 = test system: T17, OR2J1
T17 sequence (whole entry): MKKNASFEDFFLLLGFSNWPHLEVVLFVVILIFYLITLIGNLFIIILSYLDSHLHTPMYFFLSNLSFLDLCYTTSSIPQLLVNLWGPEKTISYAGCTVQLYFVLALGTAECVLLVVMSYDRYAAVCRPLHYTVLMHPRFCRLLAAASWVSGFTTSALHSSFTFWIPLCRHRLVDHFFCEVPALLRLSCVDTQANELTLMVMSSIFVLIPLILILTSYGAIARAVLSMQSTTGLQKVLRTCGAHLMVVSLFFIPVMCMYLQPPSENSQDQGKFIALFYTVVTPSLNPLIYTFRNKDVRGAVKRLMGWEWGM
Procedure, shortened: as §1

OR2J2 (Homo sapiens) = molecular target: T18, OR2J2 (Homo sapiens) (UniProt O76002)
T18 sequence (whole entry): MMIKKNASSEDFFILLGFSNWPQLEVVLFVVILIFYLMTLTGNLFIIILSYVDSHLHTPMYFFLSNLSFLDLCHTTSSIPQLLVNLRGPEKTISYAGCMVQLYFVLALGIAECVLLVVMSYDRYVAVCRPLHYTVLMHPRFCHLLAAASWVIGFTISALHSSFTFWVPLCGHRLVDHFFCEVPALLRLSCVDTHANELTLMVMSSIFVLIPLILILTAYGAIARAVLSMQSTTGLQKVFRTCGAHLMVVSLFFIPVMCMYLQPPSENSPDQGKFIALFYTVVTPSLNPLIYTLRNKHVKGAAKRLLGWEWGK
Procedure, shortened: as §1

OR2J2 [8] = test system: T19, OR2J2
T19 sequence (whole entry): T18 sequence (whole entry) with A218T
Procedure, shortened: as §1

OR2J2 [9] = test system: T20, OR2J2; remark: listed apart in the source
T20 sequence (whole entry): T18 sequence (whole entry) with H74Y, A146V, A218T
Procedure, shortened: as §1

Measured: odorant receptor agonist call

CS
inactive: all assays above

CCCCOC(C)=O
active: OR2C3
inactive: all other assays above

CCC(C)=O
inactive: all assays above

— the M2OR odorant receptor database
